Common to all, as to test: affinity purification with mass spectrometry; IP-SILAC: GFP-Trap beads on whole-cell extracts of HEK293 Flp-In T-REx cells (GFP-SRP19, GFP-SRP9, GFP-SRP14) or U2OS Flp-In T-REx cells (GFP-SRP72) induced 3 h, against parental cells; HNT buffer (20 mM Hepes pH 7.4, 150 mM NaCl, 0.5% Triton X-100), 1.5 h at 4°C; positive: SILAC ratio above 1
Experiment [1] concerns the target T1, GFP-SRP72 (human) (UniProt O76094).
T1 sequence: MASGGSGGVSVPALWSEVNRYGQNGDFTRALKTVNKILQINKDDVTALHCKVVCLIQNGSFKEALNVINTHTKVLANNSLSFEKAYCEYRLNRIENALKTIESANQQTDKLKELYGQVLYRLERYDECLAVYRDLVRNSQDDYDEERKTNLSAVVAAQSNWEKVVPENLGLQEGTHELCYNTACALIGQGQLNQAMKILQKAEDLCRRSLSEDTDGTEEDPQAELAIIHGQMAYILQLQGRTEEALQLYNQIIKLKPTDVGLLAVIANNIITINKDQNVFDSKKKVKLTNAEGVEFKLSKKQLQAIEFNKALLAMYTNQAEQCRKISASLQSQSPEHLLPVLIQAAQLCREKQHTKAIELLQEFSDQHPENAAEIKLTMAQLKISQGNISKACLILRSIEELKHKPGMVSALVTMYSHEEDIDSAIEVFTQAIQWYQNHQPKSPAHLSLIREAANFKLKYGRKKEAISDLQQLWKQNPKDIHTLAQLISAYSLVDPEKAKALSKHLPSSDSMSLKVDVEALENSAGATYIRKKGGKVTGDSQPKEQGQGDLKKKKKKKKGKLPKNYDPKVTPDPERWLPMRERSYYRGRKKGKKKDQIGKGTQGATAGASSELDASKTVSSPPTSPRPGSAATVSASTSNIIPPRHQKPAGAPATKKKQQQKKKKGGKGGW

Experiment [2] concerns the target T2, GFP-SRP19 (human) (UniProt P09132).
T2 sequence: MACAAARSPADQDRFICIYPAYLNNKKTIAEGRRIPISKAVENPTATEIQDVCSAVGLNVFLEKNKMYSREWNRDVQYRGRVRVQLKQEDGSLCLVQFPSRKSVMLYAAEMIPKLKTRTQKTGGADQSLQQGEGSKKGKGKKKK

Experiment [3] has as its target GFP-SRP14 (human) (UniProt P37108).

No constants are given. Whether binding was seen depends on the method and setting. In cells and extracts the contact can be indirect. These calls come from enrichment with a bait or labelling near it, and not all partners need be listed. Sequences can lack the tags named with a protein.

B1: ASCC2 (protein, UniProt Q9H1I8 1-757)
chain: MPALPLDQLQITHKDPKTGKLRTSPALHPEQKADRYFVLYKPPPKDNIPALVEEYLERATFVANDLDWLLALPHDKFWCQVIFDETLQKCLDSYLRYVPRKFDEGVASAPEVVDMQKRLHRSVFLTFLRMSTHKESKDHFISPSAFGEILYNNFLFDIPKILDLCVLFGKGNSPLLQKMIGNIFTQQPSYYSDLDETLPTILQVFSNILQHCGLQGDGANTTPQKLEERGRLTPSDMPLLELKDIVLYLCDTCTTLWAFLDIFPLACQTFQKHDFCYRLASFYEAAIPEMESAIKKRRLEDSKLLGDLWQRLSHSRKKLMEIFHIILNQICLLPILESSCDNIQGFIEEFLQIFSSLLQEKRFLRDYDALFPVAEDISLLQQASSVLDETRTAYILQAVESAWEGVDRRKATDAKDPSVIEEPNGEPNGVTVTAEAVSQASSHPENSEEEECMGAAAAVGPAMCGVELDSLISQVKDLLPDLGEGFILACLEYYHYDPEQVINNILEERLAPTLSQLDRNLDREMKPDPTPLLTSRHNVFQNDEFDVFSRDSVDLSRVHKGKSTRKEENTRSLLNDKRAVAAQRQRYEQYSVVVEEVPLQPGESLPYHSVYYEDEYDDTYDGNQVGANDADSDDELISRRPFTIPQVLRTKVPREGQEEDDDDEEDDADEEAPKPDHFVQDPAVLREKAEARRMAFLAKKGYRHDSSTAVAGSPRGHGQSRETTQERRKKEANKATRANHNRRTMADRKRSKGMIPS
As to B1, the binding entry in experiment [1], in experiment [2] and in experiment [3] was “binds” in each case.

B2: ZNF598 (protein, UniProt Q86UK7 1-904)
chain: MAAAGGAEGRRAALEAAAAAAPERGGGSCVLCCGDLEATALGRCDHPVCYRCSTKMRVLCEQRYCAVCREELRQVVFGKKLPAFATIPIHQLQHEKKYDIYFADGKVYALYRQLLQHECPRCPELPPFSLFGDLEQHMRRQHELFCCRLCLQHLQIFTYERKWYSRKDLARHRMQGDPDDTSHRGHPLCKFCDERYLDNDELLKHLRRDHYFCHFCDSDGAQDYYSDYAYLREHFREKHFLCEEGRCSTEQFTHAFRTEIDLKAHRTACHSRSRAEARQNRHIDLQFSYAPRHSRRNEGVVGGEDYEEVDRYSRQGRVARAGTRGAQQSRRGSWRYKREEEDREVAAAVRASVAAQQQEEARRSEDQEEGGRPKKEEAAARGPEDPRGPRRSPRTQGEGPGPKETSTNGPVSQEAFSVTGPAAPGCVGVPGALPPPSPKLKDEDFPSLSASTSSSCSTAATPGPVGLALPYAIPARGRSAFQEEDFPALVSSVPKPGTAPTSLVSAWNSSSSSKKVAQPPLSAQATGSGQPTRKAGKGSRGGRKGGPPFTQEEEEDGGPALQELLSTRPTGSVSSTLGLASIQPSKVGKKKKVGSEKPGTTLPQPPPATCPPGALQAPEAPASRAEGPVAVVVNGHTEGPAPARSAPKEPPGLPRPLGSFPCPTPQEDFPALGGPCPPRMPPPPGFSAVVLLKGTPPPPPPGLVPPISKPPPGFSGLLPSPHPACVPSPATTTTTKAPRLLPAPRAYLVPENFRERNLQLIQSIRDFLQSDEARFSEFKSHSGEFRQGLISAAQYYKSCRDLLGENFQKVFNELLVLLPDTAKQQELLSAHTDFCNREKPLSTKSKKNKKSAWQATTQQAGLDCRVCPTCQQVLAHGDASSHQALHAARDDDFPSLQAIARIIT
B2: the binding entry in experiment [1], in experiment [2] and in experiment [3] was “binds” each time.

B3: LYRIC (protein, UniProt Q86UE4 1-582)
chain: MAARSWQDELAQQAEEGSARLREMLSVGLGFLRTELGLDLGLEPKRYPGWVILVGTGALGLLLLFLLGYGWAAACAGARKKRRSPPRKREEAAAVPAAAPDDLALLKNLRSEEQKKKNRKKLSEKPKPNGRTVEVAEGEAVRTPQSVTAKQPPEIDKKNEKSKKNKKKSKSDAKAVQNSSRHDGKEVDEGAWETKISHREKRQQRKRDKVLTDSGSLDSTIPGIENTITVTTEQLTTASFPVGSKKNKGDSHLNVQVSNFKSGKGDSTLQVSSGLNENLTVNGGGWNEKSVKLSSQISAGEEKWNSVSPASAGKRKTEPSAWSQDTGDANTNGKDWGRSWSDRSIFSGIGSTAEPVSQSTTSDYQWDVSRNQPYIDDEWSGLNGLSSADPNSDWNAPAEEWGNWVDEERASLLKSQEPIPDDQKVSDDDKEKGEGALPTGKSKKKKKKKKKQGEDNSTAQDTEELEKEIREDLPVNTSKTRPKQEKAFSLKTISTSDPAEVLVKNSQPIKTLPPATSTEPSVILSKSDSDKSSSQVPPILQETDKSKSNTKQNSVPPSQTKSETSWESPKQIKKKKKARRET
With B3, the binding entry in experiment [1] and in experiment [2] was “binds” each time.

B4: NEMF (protein, UniProt O60524 1-1076)
chain: MKSRFSTIDLRAVLAELNASLLGMRVNNVYDVDNKTYLIRLQKPDFKATLLLESGIRIHTTEFEWPKNMMPSSFAMKCRKHLKSRRLVSAKQLGVDRIVDFQFGSDEAAYHLIIELYDRGNIVLTDYEYVILNILRFRTDEADDVKFAVRERYPLDHARAAEPLLTLERLTEIVASAPKGELLKRVLNPLLPYGPALIEHCLLENGFSGNVKVDEKLETKDIEKVLVSLQKAEDYMKTTSNFSGKGYIIQKREIKPSLEADKPVEDILTYEEFHPFLFSQHSQCPYIEFESFDKAVDEFYSKIEGQKIDLKALQQEKQALKKLDNVRKDHENRLEALQQAQEIDKLKGELIEMNLQIVDRAIQVVRSALANQIDWTEIGLIVKEAQAQGDPVASAIKELKLQTNHVTMLLRNPYLLSEEEDDDVDGDVNVEKNETEPPKGKKKKQKNKQLQKPQKNKPLLVDVDLSLSAYANAKKYYDHKRYAAKKTQKTVEAAEKAFKSAEKKTKQTLKEVQTVTSIQKARKVYWFEKFLWFISSENYLIIGGRDQQQNEIIVKRYLTPGDIYVHADLHGATSCVIKNPTGEPIPPRTLTEAGTMALCYSAAWDARVITSAWWVYHHQVSKTAPTGEYLTTGSFMIRGKKNFLPPSYLMMGFSFLFKVDESCVWRHQGERKVRVQDEDMETLASCTSELISEEMEQLDGGDTSSDEDKEEHETPVEVELMTQVDQEDITLQSGRDELNEELIQEESSEDEGEYEEVRKDQDSVGEMKDEGEETLNYPDTTIDLSHLQPQRSIQKLASKEESSNSSDSKSQSRRHLSAKERREMKKKKLPSDSGDLEALEGKDKEKESTVHIETHQNTSKNVAAVQPMKRGQKSKMKKMKEKYKDQDEEDRELIMKLLGSAGSNKEEKGKKGKKGKTKDEPVKKQPQKPRGGQRVSDNIKKETPFLEVITHELQDFAVDDPHDDKEEQDLDQQGNEENLFDSLTGQPHPEDVLLFAIPICAPYTTMTNYKYKVKLTPGVQKKGKAAKTALNSFMHSKEATAREKDLFRSVKDTDLSRNIPGKVKVSAPNLLNVKRK
For B4, the binding entry in experiment [1], in experiment [2] and in experiment [3] was “binds” throughout.

B5: TRIP4 (protein, UniProt Q15650 1-581)
chain: MAVAGAVSGEPLVHWCTQQLRKTFGLDVSEEIIQYVLSIESAEEIREYVTDLLQGNEGKKGQFIEELITKWQKNDQELISDPLQQCFKKDEILDGQKSGDHLKRGRKKGRNRQEVPAFTEPDTTAEVKTPFDLAKAQENSNSVKKKTKFVNLYTREGQDRLAVLLPGRHPCDCLGQKHKLINNCLICGRIVCEQEGSGPCLFCGTLVCTHEEQDILQRDSNKSQKLLKKLMSGVENSGKVDISTKDLLPHQELRIKSGLEKAIKHKDKLLEFDRTSIRRTQVIDDESDYFASDSNQWLSKLERETLQKREEELRELRHASRLSKKVTIDFAGRKILEEENSLAEYHSRLDETIQAIANGTLNQPLTKLDRSSEEPLGVLVNPNMYQSPPQWVDHTGAASQKKAFRSSGFGLEFNSFQHQLRIQDQEFQEGFDGGWCLSVHQPWASLLVRGIKRVEGRSWYTPHRGRLWIAATAKKPSPQEVSELQATYRLLRGKDVEFPNDYPSGCLLGCVDLIDCLSQKQFKEQFPDISQESDSPFVFICKNPQEMVVKFPIKGNPKIWKLDSKIHQGAKKGLMKQNKAV
As for B5, the binding entry in experiment [1], in experiment [2] and in experiment [3] was “binds” in each case.

The values are drawn from PMC11165425.
